These results are taken from paper doi:10.1101/2022.09.25.509417.

Where a chain is given by its changes, count along the chain named. Numbers in names are those of the source. These are yes or no findings as the source states them, for the method shown. Binding seen in cells or lysates may run through a third protein. Some results given as binding are weak or reduced against the parent protein; the word gives no strength. For some assays here: Sequences can lack the tags named with a protein.

Test [1] has as its target T1, Myc-tagged MCFD2 (multiple coagulation factor deficiency protein 2) (UniProt Q8NI22).
T1 sequence: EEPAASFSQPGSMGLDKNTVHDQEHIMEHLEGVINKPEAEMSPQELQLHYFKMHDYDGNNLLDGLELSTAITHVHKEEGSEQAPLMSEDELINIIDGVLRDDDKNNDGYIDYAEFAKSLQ
As to the kind of experiment: co-IP.

For test [2], the target named is T2, LMAN1 (in the co-IP of Fig. S4) (UniProt P49257).
T2 sequence: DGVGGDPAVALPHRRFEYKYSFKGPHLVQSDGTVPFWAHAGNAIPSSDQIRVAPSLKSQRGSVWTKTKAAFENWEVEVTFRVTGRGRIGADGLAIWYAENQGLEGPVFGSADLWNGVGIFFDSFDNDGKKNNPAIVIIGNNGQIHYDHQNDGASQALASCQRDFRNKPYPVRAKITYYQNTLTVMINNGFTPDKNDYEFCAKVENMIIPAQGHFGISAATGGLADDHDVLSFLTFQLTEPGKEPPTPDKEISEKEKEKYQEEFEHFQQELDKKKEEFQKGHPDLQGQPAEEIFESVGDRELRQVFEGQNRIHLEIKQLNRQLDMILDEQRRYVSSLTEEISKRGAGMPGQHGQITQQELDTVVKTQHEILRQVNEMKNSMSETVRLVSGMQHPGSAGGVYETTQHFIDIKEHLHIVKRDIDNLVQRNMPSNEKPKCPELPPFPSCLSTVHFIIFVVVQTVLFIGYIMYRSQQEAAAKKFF
As to the kind of experiment: co-IP.

B1: FLAG-tagged WT LMAN1 (lectin, mannose binding 1) (protein, UniProt P49257 31-510)
chain: T2 sequence
Regarding B1, in test [1], the binding entry is “binds”.

B2: FLAG-tagged LMAN1 N156A variant (protein, UniProt P49257 31-510)
chain: T2 sequence with N126A
For the molecule B2, the binding entry in test [1] is given as “binds”.

B3: FLAG-tagged LMAN1 H178A variant (protein, UniProt P49257 31-510)
chain: T2 sequence with H148A
Take B3: the binding result in test [1] is recorded as “binds”.

B4: FLAG-tagged LMAN1 V147I variant (protein, UniProt P49257 31-510)
chain: T2 sequence with V117I
Consider B4, for which the binding entry in test [1] is “binds”.

B5: MCFD2 V100D variant (protein, UniProt Q8NI22 27-146)
chain: T1 sequence with V74D
As for B5, the binding result in test [2] is “binds”.
